Residue numbers refer to the chain shown, from its start. No constants are given. Whether binding was seen depends on the method and setting. Binding seen in cells or lysates may run through a third protein. Some entries that bind do so weakly or less than the wild type. For some assays here: Tags and fused reporters may be left off the sequences shown.
Assays:
[1] = target: T1, GFP tagged mutant MIF (S91A) (UniProt P14174); experiment: co-IP; RCTE cells transfected with GFP tagged wild type or mutant (S91D, S91A) MIF; immunoprecipitation on protein A agarose, washed with lysis buffer with additional 300 mM NaCl, blot for 14-3-3ζ; also with lambda phosphatase treatment (less binding of the wild type)
T1 sequence: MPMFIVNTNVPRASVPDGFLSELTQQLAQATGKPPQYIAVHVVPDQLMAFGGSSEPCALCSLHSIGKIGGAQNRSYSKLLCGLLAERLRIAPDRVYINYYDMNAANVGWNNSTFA

The chains behind the UniProt entries cited, without tags or fusion partners.
UniProt P63104: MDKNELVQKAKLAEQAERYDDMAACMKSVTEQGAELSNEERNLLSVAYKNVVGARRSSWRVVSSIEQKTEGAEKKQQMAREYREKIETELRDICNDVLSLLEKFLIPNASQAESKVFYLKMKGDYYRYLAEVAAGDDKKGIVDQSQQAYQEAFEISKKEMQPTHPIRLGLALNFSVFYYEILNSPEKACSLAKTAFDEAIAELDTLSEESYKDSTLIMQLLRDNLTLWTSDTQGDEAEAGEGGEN

[2] = target: T2, GFP tagged mutant MIF (S91D) (UniProt P14174); experiment: as above
T2 sequence: T1 sequence with A91D

GFP tagged wild type MIF = target: T3, GFP tagged wild type MIF (UniProt P14174); experiment: as above
T3 sequence: T1 sequence with A91S

[3] = target: T4, Macrophage migration inhibitory factor (MIF) (human (endogenous in RCTE)) (UniProt P14174); experiment: co-IP; endogenous proteins, RCTE cell lysates; anti-MIF or anti-PIP4K2a antibody on protein A agarose, 4 °C overnight, washed with lysis buffer with additional 300 mM NaCl, Western blot; also after PIP4K2a siRNA (less MIF with 14-3-3ζ) and GFP-PIP4K2a overexpression (more)
T4 sequence: T1 sequence with A91S

[4] = target: T5, phosphatidylinositol-5-phosphate 4-kinase type 2 alpha (PIP4K2a) (human (endogenous in RCTE)) (UniProt P48426); experiment: as above
T5 sequence: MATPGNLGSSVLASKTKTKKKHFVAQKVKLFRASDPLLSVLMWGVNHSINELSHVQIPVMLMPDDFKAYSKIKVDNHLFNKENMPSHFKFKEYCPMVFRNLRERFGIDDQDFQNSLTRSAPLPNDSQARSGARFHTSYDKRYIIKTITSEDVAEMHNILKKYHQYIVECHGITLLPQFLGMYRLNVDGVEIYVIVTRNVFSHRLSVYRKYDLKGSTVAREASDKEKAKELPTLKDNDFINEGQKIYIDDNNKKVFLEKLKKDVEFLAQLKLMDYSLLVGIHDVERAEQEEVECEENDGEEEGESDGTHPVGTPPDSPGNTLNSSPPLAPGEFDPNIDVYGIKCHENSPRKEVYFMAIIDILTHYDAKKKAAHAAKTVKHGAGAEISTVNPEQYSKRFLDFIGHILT

binding [1]: binds weakly
binding [2]: binds
binding (GFP tagged wild type MIF): binds
binding [3]: binds
binding [4]: binds
Substance: 14-3-3ζ (YWHAZ) (from UniProt P63104 1-245)
